Where a name gives a salt, the structure may show the parent alone. Some results were stated once for a whole list of compounds, not compound by compound.
The compounds below were run against T1, human CHK1 kinase domain, amino acids 1 to 273 (Homo sapiens, UniProt O14757) (assay: CHK1 Enzymatic Assay). Conditions: 0.5 nM CHK1 enzyme, Omnia peptide S/T11 substrate, room temperature.
T1 construct: human CHK1 kinase domain, amino acids 1 to 273; 10xHis (C); made in house
T1 sequence (O14757 1-273): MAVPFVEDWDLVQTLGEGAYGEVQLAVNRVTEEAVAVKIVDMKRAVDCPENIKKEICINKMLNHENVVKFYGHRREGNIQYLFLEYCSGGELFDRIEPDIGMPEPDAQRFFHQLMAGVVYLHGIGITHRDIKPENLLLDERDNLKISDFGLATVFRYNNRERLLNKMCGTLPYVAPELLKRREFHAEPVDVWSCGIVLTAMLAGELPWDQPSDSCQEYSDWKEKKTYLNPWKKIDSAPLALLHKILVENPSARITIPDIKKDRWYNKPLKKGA
Format: biochemical

IC50, < 10 µM:
O=C(C[C@@H]1CCCN1)N1CCN(c2c(C3CCC3)cnc3[nH]ncc23)CC1 [Example 32, (S)-1-(4-(5-cyclobutyl-1H-pyrazolo[3,4-b]pyridin-4-yl)piperazin-1-yl)-2-(pyrrolidin-2-yl)ethanone hydrochloride]
CC1(C)CC[C@@H]([C@@H](C(=O)N2CCN(c3c(-c4ccccc4)cnc4[nH]ncc34)CC2)c2ccc(Cl)cc2)N1 [Example 6, (S)-2-(4-chlorophenyl)-2-((S)-5,5-dimethylpyrrolidin-2-yl)-1-(4-(5-phenyl-1H-pyrazolo[3,4-b]pyridin-4-yl)piperazin-1-yl)ethanone]
COc1n[nH]c2ncc(C3CC3)c(N3CCN(C(=O)C[C@@H]4CCCN4)CC3)c12 [Example 35, (S)-1-(4-(5-cyclopropyl-3-methoxy-1H-pyrazolo[3,4-b]pyridin-4-yl)piperazin-1-yl)-2-(pyrrolidin-2-yl)ethanone hydrochloride]
O=C1CC(Nc2n[nH]c3ncc(-c4ccccc4)c(N4CCN(C(=O)[C@@H](c5ccc(Cl)cc5)[C@@H]5CCCN5)CC4)c23)CN1 (stereo partly drawn) [Example 21, 4-(4-(4-((S)-2-(4-chlorophenyl)-2-((S)-pyrrolidin-2-yl)acetyl)piperazin-1-yl)-5-phenyl-1H-pyrazolo[3,4-b]pyridin-3-ylamino)pyrrolidin-2-one hydrochloride]
CCc1n[nH]c2ncc(C3CC3)c(N3CCN(C(=O)C[C@@H]4CCCN4)CC3)c12 [Example 38, (S)-1-(4-(5-cyclopropyl-3-ethyl-1H-pyrazolo[3,4-b]pyridin-4-yl)piperazin-1-yl)-2-(pyrrolidin-2-yl)ethanone hydrochloride]
CC(C)NC[C@@H](C(=O)N1CCN(c2c(Br)cnc3[nH]ncc23)CC1)c1ccc(Cl)cc1 [Example 11, (S)-1-(4-(5-bromo-1H-pyrazolo[3,4-b]pyridin-4-yl)piperazin-1-yl)-2-(4-chlorophenyl)-3-(isopropylamino)propan-1-one]
COc1n[nH]c2ncc(-c3ccccc3)c(N3CCN(C(=O)[C@H](N)Cc4ccc(Cl)cc4)CC3)c12 [Example 10]
CC1(C)CCC(CC(=O)N2CCN(c3c(C4CC4)cnc4[nH]ncc34)CC2)N1 (stereo not drawn) [Example 36, 1-(4-(5-cyclopropyl-1H-pyrazolo[3,4-b]pyridin-4-yl)piperazin-1-yl)-2-(5,5-dimethylpyrrolidin-2-yl)ethanone hydrochloride]
O=C(C[C@@H]1CCCN1)N1CCN(c2c(-c3ccccc3)cnc3[nH]ncc23)CC1 [Example 24, (S)-1-(4-(5-phenyl-1H-pyrazolo[3,4-b]pyridin-4-yl)piperazin-1-yl)-2-(pyrrolidin-2-yl)ethanone hydrochloride]
CN1CCC[C@H]1CC(=O)N1CCN(c2c(C3CC3)cnc3[nH]ncc23)CC1 [Example 31, (S)-1-(4-(5-cyclopropyl-1H-pyrazolo[3,4-b]pyridin-4-yl)piperazin-1-yl)-2-(1-methylpyrrolidin-2-yl)ethanone hydrochloride]
O=C(C[C@@H]1CCCN1)N1CCN(c2c(C3CC3)cnc3[nH]nc(/C=C/c4cccnc4)c23)CC1 [Example 27, (S,E)-1-(4-(5-cyclopropyl-3-(2-(pyridin-3-yl)vinyl)-1H-pyrazolo[3,4-b]pyridin-4-yl)piperazin-1-yl)-2-(pyrrolidin-2-yl)ethanone hydrochloride]
N[C@H](Cc1ccc(Cl)cc1)C(=O)N1CCN(c2ccnc3[nH]nc(OCC(O)CO)c23)CC1 (stereo partly drawn) [Example 8, (2R)-2-amino-3-(4-chlorophenyl)-1-(4-(3-(2,3-dihydroxypropoxy)-1H-pyrazolo[3,4-b]pyridin-4-yl)piperazin-1-yl)propan-1-one]
O=C(C[C@@H]1CCCN1)N1CCN(c2c(Br)cnc3[nH]ncc23)CC1 [Example 28, (S)-1-(4-(5-bromo-1H-pyrazolo[3,4-b]pyridin-4-yl)piperazin-1-yl)-2-(pyrrolidin-2-yl)ethanone hydrochloride]
CC(C)NC[C@@H](C(=O)N1CCN(c2c(C#N)cnc3[nH]ncc23)CC1)c1ccc(Cl)cc1 [Example 4, (S)-4-(4-(2-(4-chlorophenyl)-3-(isopropylamino)propanoyl)piperazin-1-yl)-1H-pyrazolo[3,4-b]pyridine-5-carbonitrile]
O=C(C[C@@H]1CCCN1)N1CCN(c2c(-c3ccccc3)cnc3[nH]nc(/C=C\c4cn[nH]c4)c23)CC1 [Example 30, (S,Z)-1-(4-(3-(2-(1H-pyrazol-4-yl)vinyl)-5-phenyl-1H-pyrazolo[3,4-b]pyridin-4-yl)piperazin-1-yl)-2-(pyrrolidin-2-yl)ethanone hydrochloride]
Nc1n[nH]c2ncc(-c3ccccc3)c(N3CCN(C(=O)[C@@H](c4ccc(Cl)cc4)[C@@H]4CCCN4)CC3)c12 [Example 22, (S)-1-(4-(3-amino-5-phenyl-1H-pyrazolo[3,4-b]pyridin-4-yl)piperazin-1-yl)-2-(4-chlorophenyl)-2-((S)-pyrrolidin-2-yl)ethanone]
CC(C)NC[C@@H](C(=O)N1CCN(c2c(C(F)(F)F)cnc3[nH]ncc23)CC1)c1ccc(Cl)cc1 [Example 13, (S)-2-(4-chlorophenyl)-3-(isopropylamino)-1-(4-(5-(trifluoromethyl)-1H-pyrazolo[3,4-b]pyridin-4-yl)piperazin-1-yl)propan-1-one]
O=C(C[C@@H]1CCCN1)N1CCN(c2c(C3CC3)cnc3[nH]nc(C(F)(F)F)c23)CC1 [Example 37, (S)-1-(4-(5-cyclopropyl-3-(trifluoromethyl)-1H-pyrazolo[3,4-b]pyridin-4-yl)piperazin-1-yl)-2-(pyrrolidin-2-yl)ethanone hydrochloride]
O=C(C[C@@H]1CCCN1)N1CCN(c2c(-c3ccccc3)cnc3[nH]nc(OC[C@H](O)CO)c23)CC1 [Example 16, 1-(4-(3-((R)-2,3-dihydroxypropoxy)-5-phenyl-1H-pyrazolo[3,4-b]pyridin-4-yl)piperazin-1-yl)-2-((S)-pyrrolidin-2-yl)ethanone]
CC(C)(N)C(=O)N1CCN(c2c(C3CC3)cnc3[nH]ncc23)CC1 [Example 34, 2-amino-1-(4-(5-cyclopropyl-1H-pyrazolo[3,4-b]pyridin-4-yl)piperazin-1-yl)-2-methylpropan-1-one hydrochloride]
CC(N)CC(=O)N1CCN(c2c(C3CC3)cnc3[nH]ncc23)CC1 (stereo not drawn) [Example 33, 3-amino-1-(4-(5-cyclopropyl-1H-pyrazolo[3,4-b]pyridin-4-yl)piperazin-1-yl)butan-1-one hydrochloride]
Cc1cnc2[nH]ncc2c1N1CCN(C(=O)[C@@H](c2ccc(Cl)cc2)[C@@H]2CCCN2)CC1 [Example 19, (S)-2-(4-chlorophenyl)-1-(4-(5-methyl-1H-pyrazolo[3,4-b]pyridin-4-yl)piperazin-1-yl)-2-((S)-pyrrolidin-2-yl)ethanone]
N[C@H](Cc1ccc(Cl)cc1)C(=O)N1CCN(c2c(Br)cnc3[nH]ncc23)CC1 [Example 12, (R)-2-amino-1-(4-(5-bromo-1H-pyrazolo[3,4-b]pyridin-4-yl)piperazin-1-yl)-3-(4-chlorophenyl)propan-1-one]
O=C([C@@H](c1ccc(Cl)cc1)[C@@H]1CCCN1)N1CCN(c2c(Cl)cnc3[nH]ncc23)CC1 [Example 18, (S)-1-(4-(5-chloro-1H-pyrazolo[3,4-b]pyridin-4-yl)piperazin-1-yl)-2-(4-chlorophenyl)-2-((S)-pyrrolidin-2-yl)ethanone]
O=C([C@@H](c1ccc(Cl)cc1)[C@@H]1CCCN1)N1CCN(c2c(-c3ccccc3)cnc3[nH]ncc23)CC1 [Example 3, (S)-2-(4-chlorophenyl)-1-(4-(5-phenyl-1H-pyrazolo[3,4-b]pyridin-4-yl)piperazin-1-yl)-2-((S)-pyrrolidin-2-yl)ethanone]
CC(C)NC[C@@H](C(=O)N1CCN(c2ccnc3[nH]nc(OCC(O)CO)c23)CC1)c1ccc(Cl)cc1 (stereo partly drawn) [Example 7, (2S)-2-(4-chlorophenyl)-1-(4-(3-(2,3-dihydroxypropoxy)-1H-pyrazolo[3,4-b]pyridin-4-yl)piperazin-1-yl)-3-(isopropylamino)propan-1-one]
CC(C)NC[C@@H](C(=O)N1CCN(c2c(-c3cccc(F)c3)cnc3[nH]ncc23)CC1)c1ccc(Cl)cc1 [Example 2, (S)-2-(4-chlorophenyl)-1-(4-(5-(3-fluorophenyl)-1H-pyrazolo[3,4-b]pyridin-4-yl)piperazin-1-yl)-3-(isopropylamino)propan-1-one]
COC(=O)/C=C/c1n[nH]c2ncc(-c3ccccc3)c(N3CCN(C(=O)C[C@@H]4CCCN4)CC3)c12 [Example 26, (S,E)-methyl 3-(5-phenyl-4-(4-(2-(pyrrolidin-2-yl)acetyl)piperazin-1-yl)-1H-pyrazolo[3,4-b]pyridin-3-yl)acrylate hydrochloride]
O=C([C@@H](c1ccc(Cl)cc1)[C@@H]1CCCN1)N1CCN(c2c(C3CC3)cnc3[nH]ncc23)CC1 [Example 20, (S)-2-(4-chlorophenyl)-1-(4-(5-cyclopropyl-1H-pyrazolo[3,4-b]pyridin-4-yl)piperazin-1-yl)-2-((S)-pyrrolidin-2-yl)ethanone]
N[C@H](Cc1ccc(Cl)cc1)C(=O)N1CCN(c2c(-c3ccccc3)cnc3[nH]nc(OC[C@H](O)CO)c23)CC1 [Example 15, (R)-2-amino-3-(4-chlorophenyl)-1-(4-(3-((R)-2,3-dihydroxypropoxy)-5-phenyl-1H-pyrazolo[3,4-b]pyridin-4-yl)piperazin-1-yl)propan-1-one]

Source: patent US8372842B2, “Pyrazolopyridines as kinase inhibitors” (Array BioPharma Inc., priority 2008, dated 2013)
